The target in the test is human M-CSF (macrophage colony stimulating factor) (human) (UniProt P09603). Nature of the test: ELISA screening of hybridoma clones; affinity analysis.

The chains behind the UniProt entries cited, without tags or fusion partners. Where a name states a change or a piece, a line headed by the entry shows the natural chain unless it says otherwise.
UniProt P09603: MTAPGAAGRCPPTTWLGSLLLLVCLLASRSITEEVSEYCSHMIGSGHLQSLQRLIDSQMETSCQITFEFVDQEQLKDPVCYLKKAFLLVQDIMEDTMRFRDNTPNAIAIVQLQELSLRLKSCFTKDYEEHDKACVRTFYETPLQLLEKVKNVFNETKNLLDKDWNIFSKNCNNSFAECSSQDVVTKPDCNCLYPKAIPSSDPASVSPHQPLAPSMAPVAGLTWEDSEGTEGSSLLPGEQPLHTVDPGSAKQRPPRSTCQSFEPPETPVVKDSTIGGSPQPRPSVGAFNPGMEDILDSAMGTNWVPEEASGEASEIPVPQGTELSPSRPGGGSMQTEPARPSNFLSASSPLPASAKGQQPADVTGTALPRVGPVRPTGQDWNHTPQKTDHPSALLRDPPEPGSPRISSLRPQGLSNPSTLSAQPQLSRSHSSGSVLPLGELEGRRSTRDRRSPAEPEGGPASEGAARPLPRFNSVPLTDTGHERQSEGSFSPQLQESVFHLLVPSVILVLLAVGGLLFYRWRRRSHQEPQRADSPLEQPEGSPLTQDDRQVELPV

These are yes or no findings as the source states them, for the method shown. Some binding calls cover weakened binding; strength is not graded here.

B1: M-CSF-specific murine antibody MC1 (antibody, mouse IgG2a, kappa, V domains shown)
VH: EVKLVESGGGLVQPGGSLKLSCATSGFTFSDYYMYWVRQTPEKRLEWVAYISNGGGSTYYPDTVKGRFTISRDNAKNTLYLQMSRLKSEDTAMYYCARQGSYGYPFAYWGQGTLVTVSA
VL: AIQMTQTTSSLSASLGDRVTISCSASQGISNYLNWYQQKPDGTVKLLIYYTSSLHSGVPSRFSGSGSGTDYSLTISNLEPEDIATYYCQQYSKLPWTFGGGTKLEIKR
For B1, the binding result is “binds”.
